PubChem BioAssay AID1259405 – NCATS – 2018
Here is a random part of about 50,000 reagents. About 4,000 of them (8%) count as active. 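Mouse siRNA library applied to hamster cells; one well for each siRNA.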 The numbers tell different reagents against one gene apart.

Assay: 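Mouse-designed siRNAs used to find CHO productivity engineering targets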 (primary screen)
Cell system: Chinese hamster CHO-K1 ovary cells with stable secreted eGFP expression
Reagents: single siRNA against mouse genes, 0.8 pmol siRNA per well (2 µl of 400 nM stock)
Duration: 3 days
Detection: 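Per-well intracellular GFP measured by laser scanning cytometry, plus viability from ATP luminescence, each relative to plate median of non-targeting control wells, in %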
Scale: GFP, % of control: higher = more GFP per well, higher productivity; viability (ATP), % of control: higher = more viable cells (more ATP)
Hit rule: 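Called active when intracellular GFP, relative to negative control, is at or above 120%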

| gene | siRNA no. | GFP, % of control | viability (ATP), % of control | activity call |
| --- | --- | --- | --- | --- |
| Ranbp10 (RAN binding protein 10) | 1 | 35.7 | 22.1 | inactive |
| Ranbp10 (RAN binding protein 10) | 2 | 75.7 | 78.7 | inactive |
| Ranbp10 (RAN binding protein 10) | 3 | 101 | 87.9 | inactive |
| Gripap1 (GRIP1 associated protein 1) | 1 | 70.9 | 72.7 | inactive |
| Gripap1 (GRIP1 associated protein 1) | 2 | 78.7 | 86.2 | inactive |
| Gripap1 (GRIP1 associated protein 1) | 3 | 56.2 | 47.8 | inactive |
| Plac1 (placental specific protein 1) | 1 | 83.8 | 66.8 | inactive |
| Plac1 (placental specific protein 1) | 2 | 58.9 | 84.5 | inactive |
| Plac1 (placental specific protein 1) | 3 | 62 | 72.4 | inactive |
| Fignl1 (fidgetin-like 1) | 1 | 41.5 | 25.2 | inactive |
| Fignl1 (fidgetin-like 1) | 2 | 36.3 | 59.2 | inactive |
| Fignl1 (fidgetin-like 1) | 3 | 57.8 | 43 | inactive |
| Nol4l (nucleolar protein 4-like) | 1 | 117 | 57.4 | inactive |
| Nol4l (nucleolar protein 4-like) | 2 | 69.5 | 84.4 | inactive |
| Nol4l (nucleolar protein 4-like) | 3 | 172 | 151 | active |
| Acaca (acetyl-Coenzyme A carboxylase alpha) | 1 | 70.6 | 66.8 | inactive |
| Acaca (acetyl-Coenzyme A carboxylase alpha) | 2 | 75.6 | 57.4 | inactive |
| Acaca (acetyl-Coenzyme A carboxylase alpha) | 3 | 73.7 | 86.6 | inactive |
| Thnsl2 (threonine synthase-like 2 (bacterial)) | 1 | 48.3 | 44.4 | inactive |
| Thnsl2 (threonine synthase-like 2 (bacterial)) | 2 | 77.6 | 98 | inactive |
| Thnsl2 (threonine synthase-like 2 (bacterial)) | 3 | 53.1 | 43.4 | inactive |
| Shank3 (SH3 and multiple ankyrin repeat domains 3) | 1 | 87.8 | 52.1 | inactive |
| Shank3 (SH3 and multiple ankyrin repeat domains 3) | 2 | 68.1 | 46.1 | inactive |
| Shank3 (SH3 and multiple ankyrin repeat domains 3) | 3 | 70.1 | 98.4 | inactive |
| Avpr1b (arginine vasopressin receptor 1B) | 1 | 121 | 59.4 | active |
| Avpr1b (arginine vasopressin receptor 1B) | 2 | 82.4 | 66.4 | inactive |
| Avpr1b (arginine vasopressin receptor 1B) | 3 | 57.7 | 69.9 | inactive |
| Srd5a1 (steroid 5 alpha-reductase 1) | 1 | 168 | 92.3 | active |
| Srd5a1 (steroid 5 alpha-reductase 1) | 2 | 67.9 | 73.9 | inactive |
| Srd5a1 (steroid 5 alpha-reductase 1) | 3 | 73.8 | 86.6 | inactive |
| Gm4983 (predicted gene 4983) | 1 | 46.5 | 68.6 | inactive |
| Gm4983 (predicted gene 4983) | 2 | 92.4 | 72.8 | inactive |
| Gm4983 (predicted gene 4983) | 3 | 124 | 69.8 | active |
| Sectm1b (secreted and transmembrane 1B) | 1 | 129 | 73.9 | active |
| Sectm1b (secreted and transmembrane 1B) | 2 | 70.5 | 69.6 | inactive |
| Sectm1b (secreted and transmembrane 1B) | 3 | 61.2 | 91.4 | inactive |
| Bank1 (B cell scaffold protein with ankyrin repeats 1) | 1 | 76.8 | 50.6 | inactive |
| Bank1 (B cell scaffold protein with ankyrin repeats 1) | 2 | 72 | 64.5 | inactive |
| Bank1 (B cell scaffold protein with ankyrin repeats 1) | 3 | 102 | 93.9 | inactive |
| Kcnk9 (potassium channel, subfamily K, member 9) | 1 | 132 | 99.8 | active |
| Kcnk9 (potassium channel, subfamily K, member 9) | 2 | 40.8 | 59.3 | inactive |
| Kcnk9 (potassium channel, subfamily K, member 9) | 3 | 108 | 86.2 | inactive |
| Svop (SV2 related protein) | 1 | 57.4 | 53.7 | inactive |
| Svop (SV2 related protein) | 2 | 79.5 | 86.7 | inactive |
| Svop (SV2 related protein) | 3 | 77.6 | 65.1 | inactive |

Entries above whose gene name starts with T or t (3):
| gene | siRNA no. | GFP, % of control | viability (ATP), % of control | activity call |
| --- | --- | --- | --- | --- |
| Thnsl2 (threonine synthase-like 2 (bacterial)) | 1 | 48.3 | 44.4 | inactive |
| Thnsl2 (threonine synthase-like 2 (bacterial)) | 2 | 77.6 | 98 | inactive |
| Thnsl2 (threonine synthase-like 2 (bacterial)) | 3 | 53.1 | 43.4 | inactive |

Additional entries follow.
| gene | siRNA no. | GFP, % of control | viability (ATP), % of control | activity call |
| --- | --- | --- | --- | --- |
| Eif4g3 (eukaryotic translation initiation factor 4 gamma, 3) | 1 | 74.1 | 101 | inactive |
| Eif4g3 (eukaryotic translation initiation factor 4 gamma, 3) | 2 | 66.5 | 52.6 | inactive |
| Eif4g3 (eukaryotic translation initiation factor 4 gamma, 3) | 3 | 90.2 | 74.7 | inactive |
| Slc7a11 | 1 | 92.9 | 64 | inactive |
| Slc7a11 | 2 | 62.2 | 73.1 | inactive |
| Slc7a11 | 3 | 88.3 | 77.1 | inactive |
| Ap1g1 (adaptor protein complex AP-1, gamma 1 subunit) | 1 | 104 | 59 | inactive |
| Ap1g1 (adaptor protein complex AP-1, gamma 1 subunit) | 2 | 72.3 | 62 | inactive |
| Ap1g1 (adaptor protein complex AP-1, gamma 1 subunit) | 3 | 123 | 80.7 | active |
| Nceh1 (neutral cholesterol ester hydrolase 1) | 1 | 89.4 | 84.9 | inactive |
| Nceh1 (neutral cholesterol ester hydrolase 1) | 2 | 103 | 57.5 | inactive |
| Nceh1 (neutral cholesterol ester hydrolase 1) | 3 | 45.9 | 51.2 | inactive |
| Ulk2 (unc-51 like kinase 2) | 1 | 84.3 | 92.7 | inactive |
| Ulk2 (unc-51 like kinase 2) | 2 | 81.9 | 78.5 | inactive |
| Ulk2 (unc-51 like kinase 2) | 3 | 59.3 | 76.9 | inactive |
| Necap2 (NECAP endocytosis associated 2) | 1 | 71.8 | 67.5 | inactive |
| Necap2 (NECAP endocytosis associated 2) | 2 | 101 | 79.5 | inactive |
| Necap2 (NECAP endocytosis associated 2) | 3 | 62.5 | 95.1 | inactive |
| Slc22a13b | 1 | 108 | 77.9 | inactive |
| Slc22a13b | 2 | 71.3 | 69 | inactive |
| Slc22a13b | 3 | 71 | 72.3 | inactive |
| Hif3a (hypoxia inducible factor 3, alpha subunit) | 1 | 40 | 61.6 | inactive |
| Hif3a (hypoxia inducible factor 3, alpha subunit) | 2 | 68.2 | 77 | inactive |
| Hif3a (hypoxia inducible factor 3, alpha subunit) | 3 | 56.4 | 73.8 | inactive |
| Prmt5 (protein arginine N-methyltransferase 5) | 1 | 62.6 | 80.6 | inactive |
| Prmt5 (protein arginine N-methyltransferase 5) | 2 | 101 | 92.9 | inactive |
| Prmt5 (protein arginine N-methyltransferase 5) | 3 | 97.4 | 114 | inactive |
| Tcaf2 (TRPM8 channel-associated factor 2) | 1 | 20.2 | 46.6 | inactive |
| Tcaf2 (TRPM8 channel-associated factor 2) | 2 | 103 | 101 | inactive |
| Tcaf2 (TRPM8 channel-associated factor 2) | 3 | 110 | 124 | inactive |
| Kif24 (kinesin family member 24) | 1 | 38.6 | 51.3 | inactive |
| Kif24 (kinesin family member 24) | 2 | 68.7 | 72.3 | inactive |
| Kif24 (kinesin family member 24) | 3 | 74.6 | 61 | inactive |
| Zbtb8a (zinc finger and BTB domain containing 8a) | 1 | 96.1 | 53.8 | inactive |
| Zbtb8a (zinc finger and BTB domain containing 8a) | 2 | 64.7 | 72.7 | inactive |
| Zbtb8a (zinc finger and BTB domain containing 8a) | 3 | 62.4 | 58.3 | inactive |
| Ifna9 (interferon alpha 9) | 1 | 62.3 | 62.8 | inactive |
| Ifna9 (interferon alpha 9) | 2 | 69 | 53.5 | inactive |
| Ifna9 (interferon alpha 9) | 3 | 43.8 | 46.5 | inactive |
